Reference: PubChem BioAssay AID328 (DTP/NCI, 2004)
The list shows only some results of the screen, not a fair sample: it is rich in T/C values a quarter to a half above the control, in often repeated tests (any T/C) and in doses without a T/C. Further doses and runs are listed elsewhere. T/C: endpoint of the treated group in % of that of the vehicle group. Some entries give survivors of the animals treated and no T/C: the source holds a T/C of zero for them, seemingly a mark for toxic or unscored doses. Some doses without a T/C left all or most animals alive at the check, yet need not have been tolerated: the source hardly ever lists a survival T/C far under the control, and the zero likely stands for such cases as well. Counts of survivors are from the toxicity check (mostly the fifth day) where no day follows; animals may have died later. Schedule codes are those of the source, read here as Q, the interval in days (D) or hours (H), X, the number of doses. For survival time, this PubChem deposit counts one and a half times the control or more as active, and values a quarter to a half above the control carry no call in these data; other NCI protocols may use other cut-offs. Some T/C values are followed by the survivors on the day toxicity was checked, most often the fifth; without a count, all were alive then.

Tested on: BDF1 mice, P388 leukemia ip, median survival T/C
Assay: NCI In Vivo Anticancer Drug Screen. Data for tumor model P388 Leukemia (intraperitoneal) in B6D2F1 (BDF1) mice
Details: T/C endpoint: median survival time, higher T/C = longer survival
In short: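 Each value expresses how treatment altered survival: treated-mouse outcome over vehicle-mouse outcome, both groups bearing the transplanted tumour.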

[1] = dose: 400.0 mg/kg/injection, schedule: Q04DX003 (ip), vehicle: other
[2] = dose: 25.0 mg/kg/injection, schedule: Q01DX010 (ip), vehicle: other
[3] = dose: 100.0 mg/kg/injection, schedule: Q01DX009 (ip), vehicle: saline

## O=c1cc(-c2ccccc2)ss1
dose: 25.0 mg/kg/injection, schedule: Q01DX009 (ip), vehicle: saline with Tween-80, evaluated on day 30
  T/C: 139 % of control
dose: 25.0 mg/kg/injection, schedule: Q01DX009 (ip), vehicle: saline with Tween-80, evaluated on day 35
  T/C: 135 % of control
dose: 200.0 mg/kg/injection, schedule: Q04DX003 (ip), vehicle: saline with Tween-80
  T/C: 133 % of control [5 of 6 alive]
[1]
  T/C: 140 % of control [4 of 6 alive]
  survivor count: 3 of 6
dose: 400.0 mg/kg/injection, schedule: Q04DX003 (ip), vehicle: saline with Tween-80
  survivor count: 2 of 6

## COc1cccc2c1C(=O)c1c(O)c3c(c(O)c1C2=O)C[C@@](O)(C(=O)COC(=O)c1cccnc1)C[C@@H]3OC1CC(N)C(O)C(C)O1 (stereo partly specified)
dose: 3.0 mg/kg/injection, schedule: Q01DX009 (ip), vehicle: saline
  T/C: 125 % of control

## COc1cc(C[C@H]2c3cc(OC)c(OC)cc3CCN2C)c(Oc2cc3c(cc2OC)-c2c(OC)c(OC)cc4c2[C@H](C3)N(C)CC4)cc1OC
dose: 25.0 mg/kg/injection, schedule: Q01DX010 (ip), vehicle: clinical formulation
  T/C: 127 % of control
[2]
  T/C: 130 % of control
dose: 100.0 mg/kg/injection, schedule: Q01DX010 (ip), vehicle: clinical formulation
  T/C: 127 % of control [8 of 10 alive]
dose: 144.0 mg/kg/injection, schedule: Q04DX003 (ip), vehicle: other
  survivor count: 6 of 10
dose: 192.0 mg/kg/injection, schedule: Q01DX005 (ip), vehicle: other
  survivor count: 0 of 10
dose: 192.0 mg/kg/injection, schedule: Q01DX010 (ip), vehicle: other
  survivor count: 2 of 10
dose: 200.0 mg/kg/injection, schedule: Q01DX010 (ip), vehicle: acetone
  survivor count: 10 of 10
dose: 200.0 mg/kg/injection, schedule: Q01DX010 (ip), vehicle: clinical formulation
  survivor count: 0 of 10
dose: 288.0 mg/kg/injection, schedule: Q04DX003 (ip), vehicle: other
  survivor count: 1 of 10
dose: 400.0 mg/kg/injection, schedule: Q01DX010 (ip), vehicle: acetone
  survivor count: 0 of 10
dose: 400.0 mg/kg/injection, schedule: Q01DX010 (ip), vehicle: clinical formulation
  survivor count: 0 of 10
dose: 400.0 mg/kg/injection, schedule: Q01DX010 (ip), vehicle: other
  survivor count: 0 of 10
dose: 432.0 mg/kg/injection, schedule: Q08DX002 (ip), vehicle: other
  survivor count: 0 of 10
dose: 576.0 mg/kg/injection, schedule: Q04DX003 (ip), vehicle: other
  survivor count: 0 of 10
dose: 864.0 mg/kg/injection, schedule: Q08DX002 (ip), vehicle: other
  survivor count: 0 of 10

## CC1C(=O)OC2CCN3CC4OC4(COC(=O)C(C)(O)C1(C)O)C23 (stereo unspecified)
dose: 200.0 mg/kg/injection, schedule: Q04DX003 (ip), vehicle: saline sonified
  T/C: 125 % of control

## CC1CC=C(C2CC(C)CC(N(C)C)C2=N)CC1 (stereo unspecified)
dose: 100.0 mg/kg/injection, schedule: Q01DX009 (sc), vehicle: olive oil, sesame oil, peanut oil
  survivor count: 6 of 6
dose: 200.0 mg/kg/injection, schedule: Q01DX009 (sc), vehicle: olive oil, sesame oil, peanut oil
  survivor count: 5 of 6
dose: 400.0 mg/kg/injection, schedule: Q01DX009 (sc), vehicle: olive oil, sesame oil, peanut oil
  survivor count: 0 of 6

## O=[N+]([O-])c1ccc(SCc2ccccc2)c2nonc12
dose: 25.0 mg/kg/injection, schedule: Q01DX009 (ip), vehicle: saline with Tween-80
  T/C: 131 % of control

## CC(C)(C)c1cc(I)c(O)c(CN)c1
[3]
  survivor count: 3 of 6

## CC12CCC3C4CCC(=O)C(O)=C4CCC3C1CCC2OC(=O)CCC1CCCC1 (stereo unspecified)
dose: 200.0 mg/kg/injection, schedule: Q04DX003 (sc), vehicle: steroid suspending solution
  survivor count: 6 of 6

## NC(N)=NC(N)=Nc1ccc([As](=O)(O)O)c(O)c1
dose: 66.0 mg/kg/injection, schedule: Q01DX009 (ip), vehicle: saline
  T/C: 130 % of control
[3]
  T/C: 140 % of control

## COc1cc([C@@H]2c3cc4c(c(OC)c3C[C@H]3COC(=O)[C@@H]32)OCO4)cc(OC)c1OC
dose: 12.5 mg/kg/injection, schedule: Q01DX010 (ip), vehicle: other
  T/C: 136 % of control
dose: 25.0 mg/kg/injection, schedule: Q01DX001 (ip), vehicle: other
  T/C: 126 % of control
[2]
  T/C: 145 % of control
dose: 50.0 mg/kg/injection, schedule: Q01DX001 (ip), vehicle: other
  T/C: 126 % of control
dose: 50.0 mg/kg/injection, schedule: Q01DX010 (ip), vehicle: saline
  survivor count: 0 of 6
dose: 100.0 mg/kg/injection, schedule: Q01DX001 (ip), vehicle: other
  T/C: 136 % of control
dose: 100.0 mg/kg/injection, schedule: Q01DX010 (ip), vehicle: other
  survivor count: 5 of 6
dose: 100.0 mg/kg/injection, schedule: Q01DX010 (ip), vehicle: saline
  survivor count: 0 of 6

## O=c1[nH]c(=O)n(O)c2nc[nH]c12
dose: 115.0 mg/kg/injection, schedule: Q01DX009 (ip), vehicle: saline
  survivor count: 4 of 6
dose: 150.0 mg/kg/injection, schedule: Q01DX001 (ip), vehicle: saline
  survivor count: 1 of 6
dose: 170.0 mg/kg/injection, schedule: Q01DX009 (ip), vehicle: saline
  survivor count: 2 of 6

## NC(COC(c1ccccc1)(c1ccccc1)c1ccccc1)C(=O)O (stereo unspecified)
dose: 45.0 mg/kg/injection, schedule: Q01DX009 (ip), vehicle: Klucel (hydroxypropylcellulose) (HPC)
  T/C: 125 % of control
dose: 135.0 mg/kg/injection, schedule: Q04DX003 (ip), vehicle: other
  T/C: 145 % of control
dose: 200.0 mg/kg/injection, schedule: Q04DX003 (ip), vehicle: saline
  T/C: 145 % of control [5 of 6 alive]
dose: 400.0 mg/kg/injection, schedule: Q04DX003 (ip), vehicle: saline
  survivor count: 2 of 6

## CC(C)OC(=S)SSC(=S)OC(C)C
dose: 400.0 mg/kg/injection, schedule: Q01DX009 (ip), vehicle: Klucel (hydroxypropylcellulose) (HPC)
  survivor count: 0 of 6

## Cc1ccc(S(=O)(=O)NCCCCCC(=O)OCc2ccccc2)cc1
dose: 400.0 mg/kg/injection, schedule: Q01DX009 (ip), vehicle: saline
  survivor count: 1 of 6

## S=c1nn[nH]n1-c1ccccc1.[Cd]
dose: 50.0 mg/kg/injection, schedule: Q01DX009 (ip), vehicle: saline with Tween-80
  survivor count: 0 of 6
dose: 100.0 mg/kg/injection, schedule: Q01DX009 (ip), vehicle: saline with Tween-80
  survivor count: 0 of 6
dose: 200.0 mg/kg/injection, schedule: Q01DX009 (ip), vehicle: saline with Tween-80
  survivor count: 0 of 6
